Among all 340,000 compounds or so, about 170 (0.05%) were called active. The shares of active, inactive and inconclusive entries below differ from those in the screen. The call rests on the fitted dose curve; in most records, active means well fitted inhibition curve with a large enough effect in the signal ratio, with a control signal flat (not every such curve was filed as active); inconclusive means small, poorly fitted or top-dose-only effect, or effect the other way, or a change in a side signal; inactive means flat fitted curve, though single readings scatter; the % refers to the signal ratio. Potencies of inconclusive entries are doubtful fits and often do not repeat.
Test: qHTS Assay to Find Inhibitors of Chronic Active B-Cell Receptor Signaling;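 on activity change, negative = inhibition: plate controls were basal doxycycline-induced cells for no effect and cells given 10 µM MG132 for full effect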
Details: ABC-DLBCL IkBa-CBG/CBR reporter, luminescence ratio (green luciferase fused to IkBa over red control in TMD8 lymphoma cells), 4 h; activity change, negative = inhibition: at 46.1 µM (top of the series)
Procedure, shortened: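 Cell line TMD8 (human ABC DLBCL), stably expressing tet-inducible CBG68-IkBa fusion and CBR; IMDM/0.5% FBS; cpd up to 46 uM; dox induction, 4 h, 37C/5% CO2; dual luminescence; green/red ratio; MG132 control.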
Potency means the concentration at half of the fitted maximal effect.

| SMILES | activity change, negative = inhibition | Potency |
| --- | --- | --- |
| CCOC(=O)c1c(S(=O)(=O)N2CCC(C(=O)Nc3ccc(C)cn3)CC2)c(C)n(C)c1C | inactive: 0.478% | – |
| CCN(CC(=O)NCc1ccc(F)cc1)C(=O)c1cccnc1SC | inactive: 1.21% | – |
| CC(Sc1nc2ccccc2c(=O)n1CCc1ccc(S(N)(=O)=O)cc1)C(=O)NC(N)=O (centres undefined) | inconclusive: -0.384% | – |
| O=C(CNC(=O)c1ccc2c(c1)OCO2)N/N=C(Br)/C=C/c1ccccc1 | – | inconclusive: 16.4 µM [cytotoxic, partial curve] |
| Cc1ccc(S(=O)(=O)N(C)C)cc1NC(=O)c1cncc(Br)c1 | inconclusive: -0.324% | – |
| CN(c1nc(-c2ccc(Br)cc2)cs1)C1CCS(=O)(=O)C1 (centres undefined) | inactive: -6.71% | – |
| CCCN(CCC)CCCNC(=O)C1c2cc(OC)c(OC)cc2C(=O)N(C)C1c1cccs1 (centres undefined) | inconclusive: -21.1% | – |
| CSc1ncccc1C(=O)OCC(=O)c1cc(C)n(C)c1C | inactive: 3.74% | – |
| CCC(C)NC(=O)CO/N=C/c1ccccc1OC(F)F (centres undefined) | inconclusive: 5.78% | – |
| CCN(CC)S(=O)(=O)c1cc(C(=O)NCCN2CCOCC2)ccc1Cl | inconclusive: -7.49% | – |
| c1ccc2cc(CNCc3cccc4ccccc34)ccc2c1 | inconclusive: 14.8% | – |
| CC(C)(C)NC(=O)CON=C1c2ccccc2-c2ccccc21 | inactive: -1.21% | – |
| Cc1ccc(-n2nc3cc(C)c(N)cc3n2)cc1 | – | inconclusive: 29.1 µM [falling, single point] |
| O=C(NCCOc1ccccc1)c1ccccc1NC(=O)C1CCCO1 (centres undefined) | inconclusive: -0.0108% | – |
| CC(/C=N/Nc1nnc2c(n1)[nH]c1ccccc12)=C\c1ccco1 | – | inconclusive: 14.6 µM [falling, single point] |
| Cc1cc2n(n1)SC(Nc1cccc3ccccc13)N2 (centres undefined) | inconclusive: 9.89% | – |
| CCN(CC)c1ccc(NC(=O)COc2ccccc2C)cc1S(=O)(=O)Nc1ccccc1OC | – | inconclusive: 14.6 µM [falling, partial curve, poor fit] |
| Cc1ccc(NC2=NCC(Cc3ccc(Br)cc3)S2)cc1 (centres undefined) | inactive: -14.1% | – |
| O=C(N/N=C\c1ccncc1)c1ccccc1O | – | inconclusive: 4.47 µM [rising, full curve, poor fit] |
| COc1ccc(CCNC(=O)CN2C(=O)CCSc3ccccc32)c(OC)c1 | inconclusive: -6.7% | – |
| CN(C)S(=O)(=O)N(CC(=O)Nc1ccc(F)c(F)c1)c1ccccc1 | inconclusive: -1.82% | – |
| CCOc1cc(N2CCOCC2)c(OCC)cc1NC(=O)COc1ccccc1[N+](=O)[O-] | – | inconclusive: 17.8 µM [falling, partial curve, poor fit] |
| O=C(CN1CCN(S(=O)(=O)c2ccccc2)CC1)Nc1ccc2c(c1)CCC2 | inactive: 8.28% | – |
| N#CCC(=O)Nc1ccc(C(=O)NNC(=S)NC2CC2)cc1 | – | inconclusive: 25.9 µM [falling, single point] |
| O=c1[nH]cnc2sc3c(c12)CCN(Cc1ccccc1)C3 | inactive: -0.983% | – |
| CC(C)(C)c1ccc(C(=O)N2CCC(C(=O)NC3CCCCCC3)CC2)cc1 | inactive: -14.3% | – |
| O=C(C1CCCN(S(=O)(=O)c2ccc(F)cc2)C1)N1CCCC1 (centres undefined) | inconclusive: 0.479% | – |

| SMILES | activity change, negative = inhibition | Potency |
| --- | --- | --- |
| O=C(NCc1ccccc1C(F)(F)F)c1cccc2c1C(=O)c1ccc(N3CCCCC3)cc1S2(=O)=O | inactive: -0.762% | – |
| COc1nonc1NC(=O)CSc1nc2ccccc2[nH]1 | inconclusive: -13.4% | – |
| C/C(CC(=O)Nc1ccc(OCc2ccccc2)cc1)=N\NC(=O)C(=O)Nc1ccc(C)c(Cl)c1 | inconclusive: -9.65% | – |
| O=C(CCC1CCCC1)NNC(=O)c1ccccc1O | – | inconclusive: 18.4 µM [falling, single point] |
| Cc1ccc(Cn2c(NC(=O)c3ccco3)nc3ccccc32)cc1 | inconclusive: -1.57% | – |
| COCCCNC(=O)COC(=O)c1ccc(-c2nc3ccccc3s2)s1 | – | inconclusive: 7.08 µM [falling, partial curve] |
| COc1ccc(S(=O)(=O)N2CCOCC2)cc1NC(=O)c1cc(C)oc1C | inconclusive: -2.78% | – |
| Cc1ccc(SCC(=O)Nc2ccc(-c3nnc(-c4ccco4)o3)cc2)cc1 | – | inconclusive: 17.8 µM [rising, single point] |
| O=C(NC(=S)Nc1ccc(F)c(Cl)c1)C1CC1 | – | inconclusive: 25.1 µM [falling, single point] |
| Cc1ccc(S(=O)(=O)CCc2nc3ccccc3[nH]2)cc1 | inconclusive: 0.456% | – |
| COc1ccc(C(=O)CC(=O)C(=O)Nc2ccc(C)cc2Cl)cc1 | inconclusive: 1.91% | – |
| COc1ccccc1NC(=O)c1nc(S(=O)(=O)Cc2ccccc2)ncc1Cl | inconclusive: 1.1% | – |
| CC1c2cc3c(cc2CCN1CC(=O)Nc1ccccc1)OCCCO3 (centres undefined) | – | inconclusive: 14.1 µM [falling, partial curve, poor fit] |
| COc1ccc(S(=O)(=O)n2nc(-c3ccc(Cl)cc3)cc2N)cc1OC | inconclusive: -0.0683% | – |
| O=C(CSc1nc(-c2ccc(Cl)cc2)cs1)Nc1cccc([N+](=O)[O-])c1 | – | inconclusive: 10.3 µM [rising, partial curve, poor fit] |
| O=C(NCc1ccc(Cl)cc1)C(=O)NCC1OCCN1C(=O)c1ccc(Cl)cc1 (centres undefined) | – | inconclusive: 0.0891 µM [falling, full curve, poor fit] |
| CC1CCCC(C)N1CC(O)COCc1ccccc1 (centres undefined) | inconclusive: -0.328% | – |
| CN(C)S(=O)(=O)c1ccc(Cl)c(NC(=O)CN2CCN(c3ccccn3)CC2)c1 | inconclusive: 3.22% | – |
| Cc1ccc(S(=O)(=O)N2CCOCCOCCOCCOCCOCC2)cc1 | inconclusive: 3.19% | – |
| O=C(CCN1C(=O)C2C3CCC(C3)C2C1=O)Nc1ccc(Br)cc1 (centres undefined) | inactive: 2.62% | – |
| Cc1csc(=O)n1CCC(=O)OCC(=O)c1c(N)n(C)c(=O)n(C)c1=O | – | inconclusive: 16.4 µM [rising, partial curve, poor fit] |
| CC1CCN(CC(=O)N2CCCc3c2c(=O)oc2ccc(OCc4ccccc4)cc32)CC1 | inconclusive: -5.54% | – |
| CCCOc1ccc(Br)cc1CSC(=N)N | – | inconclusive: 29.1 µM [falling, single point] |
| COc1ccc(C(C)NC(=O)c2ccccc2Cl)cc1OC (centres undefined) | inactive: 4.63% | – |
| O=C(O)c1cc(NC(=O)c2ccccc2F)cc(NC(=O)c2ccccc2F)c1 | inconclusive: -29.8% | – |
| O=S1(=O)C=CC(Nc2cccc(Cl)c2)C1 (centres undefined) | inconclusive: -9.08% | – |
| CSc1ccccc1OCc1cc(C(=O)N2CCC(c3ccncc3)CC2)no1 | – | inconclusive: 14.1 µM [falling, partial curve, poor fit] |

23 entries from above, with bars between the fields:
SMILES | activity change, negative = inhibition | Potency
CCN(CC(=O)NCc1ccc(F)cc1)C(=O)c1cccnc1SC | inactive: 1.21% | –
CCCN(CCC)CCCNC(=O)C1c2cc(OC)c(OC)cc2C(=O)N(C)C1c1cccs1 (centres undefined) | inconclusive: -21.1% | –
CSc1ncccc1C(=O)OCC(=O)c1cc(C)n(C)c1C | inactive: 3.74% | –
O=C(NCCOc1ccccc1)c1ccccc1NC(=O)C1CCCO1 (centres undefined) | inconclusive: -0.0108% | –
Cc1cc2n(n1)SC(Nc1cccc3ccccc13)N2 (centres undefined) | inconclusive: 9.89% | –
CCN(CC)c1ccc(NC(=O)COc2ccccc2C)cc1S(=O)(=O)Nc1ccccc1OC | – | inconclusive: 14.6 µM [falling, partial curve, poor fit]
O=C(N/N=C\c1ccncc1)c1ccccc1O | – | inconclusive: 4.47 µM [rising, full curve, poor fit]
CN(C)S(=O)(=O)N(CC(=O)Nc1ccc(F)c(F)c1)c1ccccc1 | inconclusive: -1.82% | –
CCOc1cc(N2CCOCC2)c(OCC)cc1NC(=O)COc1ccccc1[N+](=O)[O-] | – | inconclusive: 17.8 µM [falling, partial curve, poor fit]
O=C(CN1CCN(S(=O)(=O)c2ccccc2)CC1)Nc1ccc2c(c1)CCC2 | inactive: 8.28% | –
CC(C)(C)c1ccc(C(=O)N2CCC(C(=O)NC3CCCCCC3)CC2)cc1 | inactive: -14.3% | –
O=C(C1CCCN(S(=O)(=O)c2ccc(F)cc2)C1)N1CCCC1 (centres undefined) | inconclusive: 0.479% | –
O=C(NCc1ccccc1C(F)(F)F)c1cccc2c1C(=O)c1ccc(N3CCCCC3)cc1S2(=O)=O | inactive: -0.762% | –
C/C(CC(=O)Nc1ccc(OCc2ccccc2)cc1)=N\NC(=O)C(=O)Nc1ccc(C)c(Cl)c1 | inconclusive: -9.65% | –
O=C(CCC1CCCC1)NNC(=O)c1ccccc1O | – | inconclusive: 18.4 µM [falling, single point]
Cc1ccc(Cn2c(NC(=O)c3ccco3)nc3ccccc32)cc1 | inconclusive: -1.57% | –
Cc1ccc(SCC(=O)Nc2ccc(-c3nnc(-c4ccco4)o3)cc2)cc1 | – | inconclusive: 17.8 µM [rising, single point]
Cc1ccc(S(=O)(=O)CCc2nc3ccccc3[nH]2)cc1 | inconclusive: 0.456% | –
COc1ccccc1NC(=O)c1nc(S(=O)(=O)Cc2ccccc2)ncc1Cl | inconclusive: 1.1% | –
CN(C)S(=O)(=O)c1ccc(Cl)c(NC(=O)CN2CCN(c3ccccn3)CC2)c1 | inconclusive: 3.22% | –
Cc1ccc(S(=O)(=O)N2CCOCCOCCOCCOCCOCC2)cc1 | inconclusive: 3.19% | –
O=C(CCN1C(=O)C2C3CCC(C3)C2C1=O)Nc1ccc(Br)cc1 (centres undefined) | inactive: 2.62% | –
O=S1(=O)C=CC(Nc2cccc(Cl)c2)C1 (centres undefined) | inconclusive: -9.08% | –

Next structures follow.

| SMILES | activity change, negative = inhibition | Potency |
| --- | --- | --- |
| C/C(=N\NC(=O)c1ccc(N2CCCC2=O)cc1)c1ccc(O)cc1O | inactive: -10.2% | – |
| O=S(=O)(NCC1CCN(S(=O)(=O)c2ccccc2)CC1)c1ccccc1 | inconclusive: 0.999% | – |
| O=C1Nc2ccc(Br)cc2C1Cc1ccccc1F (centres undefined) | inconclusive: -18.8% | – |
| O=C(O)c1c(NC(=O)N2CCOCC2)sc2c1CCCC2 | – | inconclusive: 25.1 µM [falling, single point] |
| COc1ccc([C@H]2CC(=O)C=C(c3cc(C=O)ccc3OC)C2)cc1OC | inactive: -4.13% | – |
| c1ccc(-c2noc(CC3CCCCC3)n2)nc1 | – | inconclusive: 35.5 µM [falling, single point] |
| O=C(CSc1ncnc2ccccc12)Nc1cc(S(=O)(=O)N2CCCCC2)ccc1Cl | – | inconclusive: 23.1 µM [falling, single point] |
| C/C(CCc1ccc2c(c1)OCO2)=N\NC(=O)c1ccccc1Br | – | inconclusive: 31.6 µM [rising, partial curve] |
| O=C(Nc1ccc2c(c1)OCO2)C1CCCN(c2nc3ccccc3s2)C1 (centres undefined) | inconclusive: -3.83% | – |
| COc1ccc(C(c2c(C)n(C)n(-c3ccccc3)c2=O)c2c(C)n(C)n(-c3ccccc3)c2=O)cc1O | inconclusive: -2.51% | – |
| Cc1oc2c(C)c(O)ccc2c(=O)c1-c1cnn(-c2ccccc2)c1 | inconclusive: 2.06% | – |
| CCn1cc([N+](=O)[O-])c(C(=O)Nc2ccc(Cn3nc(C)cc3C)cc2)n1 | inconclusive: -0.809% | – |
| CC(C)=C1C(=O)NN(c2ccc(F)c(Cl)c2)C1=O | inactive: -2.33% | – |
| COc1ccccc1NC(=O)CN1CCN(C(=O)C2CCCO2)CC1 (centres undefined) | inactive: -0.423% | – |
| O=C(NC(=S)Nc1ccccc1O)c1ccc(Cl)cc1Cl | inconclusive: 2.5% | – |
| Clc1ccc(-c2cn3cccnc3n2)cc1 | – | inconclusive: 1.64 µM [rising, full curve, poor fit] |
| Nc1nnnn1CC(=O)N/N=C/c1cc([N+](=O)[O-])ccc1O | inconclusive: -13.7% | – |
| COc1ccc(Cl)cc1C(=O)NNC(=O)c1csc(N2CCOCC2)n1 | – | inconclusive: 29.1 µM [falling, single point] |
| CC(C)=C1C2CCC1C(C(=O)Nc1sc(C)c(-c3ccc(C(C)C)cc3)c1C(N)=O)C2C(=O)O (centres undefined) | inconclusive: -3.59% | – |
| C[C@H](CO)N1C[C@H](C)[C@@H](CN(C)Cc2ccncc2)Oc2ccc(NC(=O)CCCCCC(=O)Nc3ccccc3N)cc2C1=O | inactive: -1.11% | – |
| O/N=C/C1=C(Cl)c2ccccc2CC1 | inconclusive: 0.267% | – |
| CN(C)c1cc[n+](CC(=O)Nc2c(Cl)cc(Cl)cc2Cl)cc1 | – | inconclusive: 22.4 µM [falling, partial curve] |
| C/C(=N\NC(=O)c1cccs1)c1c(O)cc(C)oc1=O | inconclusive: -8.35% | – |
| CCc1ccc(C(=O)Nc2nc3ccccc3[nH]2)cc1 | – | inconclusive: 3.55 µM [rising, partial curve, poor fit] |
| CCOc1ccc(CC(=O)NNC(=S)NC2CCCCC2)cc1OCC | – | inconclusive: 0.0184 µM [falling, full curve, poor fit] |
